One test addresses GST-MICAL1 CC domain (UniProt Q8TDZ2). The test is described as follows: pull-down; 50 ug GST-MICAL1 CC domain precoupled to Glutathione-Sepharose beads, 1 mg HEK 293T lysate with FLAG-Rab35 wt or variants; 50 mM Tris-HCl pH 7.4, 100 mM NaCl2, 5 mM MgCl2, 0.5% Triton X-100, 0.25% deoxycholate, 0.05% SDS, 5% glycerol; 1 h at 4 °C; anti-FLAG immunoblot; only the target purified. A general note: Immunoblotting shows a protein as a band on a membrane.

Protein sequences, listed by entry. Tags and fused reporters are not part of them. Lines headed by an entry give the natural chain unless they say otherwise; changes in a name come on top.
UniProt Q8TDZ2: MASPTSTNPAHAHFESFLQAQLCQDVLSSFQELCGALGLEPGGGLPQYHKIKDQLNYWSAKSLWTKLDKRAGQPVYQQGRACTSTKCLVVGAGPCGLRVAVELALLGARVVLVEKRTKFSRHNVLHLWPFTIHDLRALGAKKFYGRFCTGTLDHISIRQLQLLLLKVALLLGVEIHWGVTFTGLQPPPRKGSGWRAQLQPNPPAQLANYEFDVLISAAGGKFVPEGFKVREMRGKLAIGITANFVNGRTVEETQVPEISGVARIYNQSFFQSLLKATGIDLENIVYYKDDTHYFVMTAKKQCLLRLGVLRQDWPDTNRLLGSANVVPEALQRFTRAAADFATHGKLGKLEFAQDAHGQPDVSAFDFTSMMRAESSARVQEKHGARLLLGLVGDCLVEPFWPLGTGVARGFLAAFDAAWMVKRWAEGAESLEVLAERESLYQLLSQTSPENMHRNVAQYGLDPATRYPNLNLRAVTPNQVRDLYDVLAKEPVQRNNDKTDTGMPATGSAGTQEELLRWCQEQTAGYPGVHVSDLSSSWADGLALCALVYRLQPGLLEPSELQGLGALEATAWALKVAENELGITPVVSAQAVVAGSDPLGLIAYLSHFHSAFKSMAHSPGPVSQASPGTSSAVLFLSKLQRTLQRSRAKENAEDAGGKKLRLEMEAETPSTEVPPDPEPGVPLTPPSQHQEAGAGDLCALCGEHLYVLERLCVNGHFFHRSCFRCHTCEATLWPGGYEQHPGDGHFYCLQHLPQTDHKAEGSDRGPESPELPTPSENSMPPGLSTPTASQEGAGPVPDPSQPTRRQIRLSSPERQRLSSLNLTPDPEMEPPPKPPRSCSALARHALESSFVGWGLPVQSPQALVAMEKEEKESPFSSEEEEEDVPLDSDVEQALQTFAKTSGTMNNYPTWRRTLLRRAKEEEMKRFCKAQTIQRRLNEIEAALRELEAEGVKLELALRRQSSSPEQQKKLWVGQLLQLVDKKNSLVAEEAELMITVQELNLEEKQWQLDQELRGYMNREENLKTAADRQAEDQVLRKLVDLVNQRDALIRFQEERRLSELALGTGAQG
UniProt Q15286: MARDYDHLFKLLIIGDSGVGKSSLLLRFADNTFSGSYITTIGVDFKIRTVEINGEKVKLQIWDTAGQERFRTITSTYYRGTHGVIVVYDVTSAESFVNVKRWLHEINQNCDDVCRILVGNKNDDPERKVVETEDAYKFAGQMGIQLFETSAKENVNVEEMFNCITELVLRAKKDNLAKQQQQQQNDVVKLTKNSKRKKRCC
UniProt Q6P3S1: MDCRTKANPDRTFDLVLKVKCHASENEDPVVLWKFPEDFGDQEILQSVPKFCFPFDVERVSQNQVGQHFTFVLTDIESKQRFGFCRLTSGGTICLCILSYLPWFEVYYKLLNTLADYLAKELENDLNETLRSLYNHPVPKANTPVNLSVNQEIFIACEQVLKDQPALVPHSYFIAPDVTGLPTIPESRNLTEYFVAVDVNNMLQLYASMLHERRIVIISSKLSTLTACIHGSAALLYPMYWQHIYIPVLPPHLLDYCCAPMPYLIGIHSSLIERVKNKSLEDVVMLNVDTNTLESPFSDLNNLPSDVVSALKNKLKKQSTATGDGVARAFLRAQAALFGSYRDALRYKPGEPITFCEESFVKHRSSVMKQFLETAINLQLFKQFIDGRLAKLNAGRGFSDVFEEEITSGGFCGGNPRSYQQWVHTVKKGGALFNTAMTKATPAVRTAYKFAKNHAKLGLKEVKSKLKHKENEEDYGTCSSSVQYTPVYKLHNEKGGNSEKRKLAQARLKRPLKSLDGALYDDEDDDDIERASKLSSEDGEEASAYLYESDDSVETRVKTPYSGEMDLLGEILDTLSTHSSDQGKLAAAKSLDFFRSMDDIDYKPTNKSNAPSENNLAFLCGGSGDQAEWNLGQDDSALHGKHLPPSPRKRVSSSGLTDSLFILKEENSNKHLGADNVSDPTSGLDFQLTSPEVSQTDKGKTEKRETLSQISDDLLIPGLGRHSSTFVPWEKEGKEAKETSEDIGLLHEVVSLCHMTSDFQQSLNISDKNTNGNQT
UniProt Q8TEH3: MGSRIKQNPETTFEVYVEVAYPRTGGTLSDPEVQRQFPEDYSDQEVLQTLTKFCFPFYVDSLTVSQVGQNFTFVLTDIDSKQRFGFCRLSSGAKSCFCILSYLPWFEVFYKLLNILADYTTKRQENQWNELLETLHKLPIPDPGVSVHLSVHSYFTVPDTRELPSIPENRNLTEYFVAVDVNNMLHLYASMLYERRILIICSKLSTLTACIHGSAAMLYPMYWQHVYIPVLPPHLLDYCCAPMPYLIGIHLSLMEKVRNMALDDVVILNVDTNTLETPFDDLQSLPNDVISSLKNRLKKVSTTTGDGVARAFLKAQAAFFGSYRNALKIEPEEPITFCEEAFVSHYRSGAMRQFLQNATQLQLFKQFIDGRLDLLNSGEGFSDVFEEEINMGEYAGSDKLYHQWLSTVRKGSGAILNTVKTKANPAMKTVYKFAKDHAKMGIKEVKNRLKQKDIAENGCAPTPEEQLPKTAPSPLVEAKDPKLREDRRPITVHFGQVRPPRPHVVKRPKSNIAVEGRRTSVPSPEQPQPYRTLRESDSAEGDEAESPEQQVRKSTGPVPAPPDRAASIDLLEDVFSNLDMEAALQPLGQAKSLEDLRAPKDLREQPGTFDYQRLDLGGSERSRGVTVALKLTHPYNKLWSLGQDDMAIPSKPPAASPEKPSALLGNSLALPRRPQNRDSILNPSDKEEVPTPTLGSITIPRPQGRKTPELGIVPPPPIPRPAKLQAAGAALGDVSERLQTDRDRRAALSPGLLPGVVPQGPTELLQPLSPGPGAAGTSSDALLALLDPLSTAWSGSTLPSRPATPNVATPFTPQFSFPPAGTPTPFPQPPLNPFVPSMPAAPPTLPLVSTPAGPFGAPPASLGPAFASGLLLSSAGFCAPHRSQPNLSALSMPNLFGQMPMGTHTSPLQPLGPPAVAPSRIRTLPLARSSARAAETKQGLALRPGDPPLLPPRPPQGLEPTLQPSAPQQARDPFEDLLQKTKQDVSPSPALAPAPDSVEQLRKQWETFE

For another test, the target named is GST-Rab35 Q67L (human) (UniProt Q15286). Nature of the test: pull-down; 50 ug GST-Rab35 (wt, R27H, Q67L or S22N) precoupled to Glutathione-Sepharose beads, 1 mg HEK 293T lysate with FLAG-CD1 or FLAG-CD2 DENN domain; 20 mM Hepes, 100 mM NaCl2, 5 mM MgCl2, 1% Triton X-100; 1 h at 4 °C; anti-FLAG immunoblot; only the target purified.
Another test concerns the target GST-Rab35 S22N (human) (UniProt Q15286). The description is as above.
The target in a further test is GST-Rab35 wt (human) (UniProt Q15286). Described as above.

No constants are given. Whether binding was seen depends on the method and setting. In cells and extracts the contact can be indirect. A result given as binding can be weak or reduced; the word gives no strength.

For “FLAG-Rab35 wt (from UniProt Q15286-1 1-201)”, the binding result with GST-MICAL1 CC domain is given as “binds”. On to “FLAG-connecdenn 2 (CD2) DENN domain (from UniProt Q6P3S1) (domain or fragment)”, for which the binding result is given as “binds weakly” in the test with GST-Rab35 Q67L (human), “binds” with GST-Rab35 S22N (human) and “binds weakly” with GST-Rab35 wt (human). Consider “FLAG-connecdenn 1 (CD1) DENN domain (from UniProt Q8TEH3) (domain or fragment)”, for which the binding entry is recorded as “binds weakly” with GST-Rab35 Q67L (human), “binds” with GST-Rab35 S22N (human) and “binds weakly” with GST-Rab35 wt (human). As to “FLAG-Rab35 Q67L (from UniProt Q15286-1 1-201)”, the binding entry with GST-MICAL1 CC domain was “binds”. Regarding “FLAG-Rab35 S22N (from UniProt Q15286-1 1-201)”, in the test with GST-MICAL1 CC domain, the binding entry is “no binding”.

Values taken from article PMC10966776.
